Experimental data published in paper doi:10.1101/2021.08.16.456495.
These are yes or no findings as the source states them, for the method shown. Some entries that bind do so weakly or less than the wild type.

Sequences of proteins named here, by UniProt entry; tags and fusion partners are left off. Residues count along the entry.
UniProt Q9NPF0, residues 53-171: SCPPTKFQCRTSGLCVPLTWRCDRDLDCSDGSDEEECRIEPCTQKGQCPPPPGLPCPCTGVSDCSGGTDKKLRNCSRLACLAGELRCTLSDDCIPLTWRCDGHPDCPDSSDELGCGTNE

Target: Transcobalamin receptor TCblR (CD320), crystallization construct, as in the TC:TCblR complex (human) (UniProt Q9NPF0)
Test: crystal structure

B1: Transcobalamin (TC), B12-bound, as in the TC:TCblR complex (protein, UniProt P20062 19-427)
chain: EMCEIPEMDSHLVEKLGQHLLPWMDRLSLEHLNPSIYVGLRLSSLQAGTKEDLYLHSLKLGYQQCLLGSAFSEDDGDCQGKPSMGQLALYLLALRANCEFVRGHKGDRLVSQLKWFLEDEKRAIGHDHKGHPHTSYYQYGLGILALCLHQKRVHDSVVDKLLYAVEPFHQGHHSVDTAAMAGLAFTCLKRSNFNPGRRQRITMAIRTVREEILKAQTPEGHFGNVYSTPLALQFLMTSPMRGAELGTACLKARVALLASLQDGAFQNALMISQLLPVLNHKTYIDLIFPDCLAPRVMLEPAAETIPQTQEIISVTLQVLSLLPPYRQSISVLAGSTVEDVLKKAHELGGFTYETQASLSGPYLTSVMGKAAGEREFWQLLRDPNTPLLQGIADYRPKDGETIELRLVSW
**Q.** For B1, which binding is on record?
**A.** Its binding is “binds”.
